These results are taken from paper PMC9709080.

Sequences of proteins named here, by UniProt entry; tags and fusion partners are left off. A change or cut given only in a name is not applied to a line headed by its entry.
UniProt P05556: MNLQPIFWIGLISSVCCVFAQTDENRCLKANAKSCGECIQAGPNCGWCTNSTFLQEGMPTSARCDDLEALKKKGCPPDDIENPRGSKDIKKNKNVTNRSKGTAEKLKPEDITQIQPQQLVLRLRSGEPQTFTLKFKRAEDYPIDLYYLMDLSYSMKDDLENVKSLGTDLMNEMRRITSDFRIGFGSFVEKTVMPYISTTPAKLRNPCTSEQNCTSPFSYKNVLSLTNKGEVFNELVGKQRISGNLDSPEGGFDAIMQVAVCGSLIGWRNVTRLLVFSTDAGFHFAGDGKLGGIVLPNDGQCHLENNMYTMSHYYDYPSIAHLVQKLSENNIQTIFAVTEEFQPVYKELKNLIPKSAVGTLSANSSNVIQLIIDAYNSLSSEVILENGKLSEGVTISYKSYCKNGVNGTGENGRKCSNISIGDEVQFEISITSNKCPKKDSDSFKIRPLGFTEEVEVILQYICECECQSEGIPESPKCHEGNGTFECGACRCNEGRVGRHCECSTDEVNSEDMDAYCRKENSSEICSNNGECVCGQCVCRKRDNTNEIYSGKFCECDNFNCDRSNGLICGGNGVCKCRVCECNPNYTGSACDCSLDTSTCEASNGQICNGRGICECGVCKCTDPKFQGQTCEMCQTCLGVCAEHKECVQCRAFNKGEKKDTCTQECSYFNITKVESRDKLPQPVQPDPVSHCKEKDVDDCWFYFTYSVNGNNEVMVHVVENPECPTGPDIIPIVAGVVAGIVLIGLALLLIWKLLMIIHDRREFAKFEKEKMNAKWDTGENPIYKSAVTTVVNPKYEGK

Holding throughout (assay): co-IP; mouse monoclonal antibody to integrin α1, αv, β1, β5 or V5 on anti-mouse IgG Dynabeads M280; 200 ug total protein of SH-SY5Y TRPM2 KO cells reconstituted with TRPM2, grown without serum for 24 h; overnight at 4 °C; washed five times with PBS with protease inhibitors; Western blot of eluates
In general terms: In western blotting, separated proteins are transferred to a membrane and probed.

Assay [1] deals with V5-labeled TRPM2 (wild type, full length) (human) (UniProt O94759).
For assay [2], the target named is integrin α1 (ITGA1) (human (endogenous in SH-SY5Y)) (UniProt P56199).
Assay [3] addresses integrin β1 (ITGB1) (human (endogenous in SH-SY5Y)) (UniProt P05556).

No constants are given. Whether binding was seen depends on the method and setting. Binding seen in cells or lysates may run through a third protein. Some entries that bind do so weakly or less than the wild type.

Turning to “integrin β1 (ITGB1) (from UniProt P05556 21-798) (receptor)”, the results for the binding result in assay [1] and in assay [2] were “no binding” and “binds”, respectively.

Regarding “integrin α1 (ITGA1) (from UniProt P56199 29-1179) (receptor)”, the figures for the binding result in assay [1] and in assay [3] were “no binding” and “binds”, respectively.
